# Test results: PubChem BioAssay AID504467 (National Center for Advancing Translational Sciences (NCATS), 2011)
# The whole screen tested about 330,000 compounds, of which about 7,700 (2.3%) were called active. The inconclusive results got no clear call from the source; some entries with a clear call stand among them for comparison. Calls come from the whole dose curve; as a rule, active = well fitted inhibition curve with a large enough effect; inconclusive = small, poorly fitted or top-dose-only effect, or effect the other way; inactive = flat fitted curve, though single readings scatter. Potencies beside an inconclusive call are fits to weak or partial responses and may not hold up.
# Assay: qHTS screen for small molecules that inhibit ELG1-dependent DNA repair in human embryonic kidney (HEK293T) cells expressing luciferase-tagged ELG1; note: nearly all actives have a fitted effect of over 55% in size
# Settings: HEK293T ELG1-luciferase reporter, luminescence, 16 h, DNA damage induced by 5-fluorouridine; series mostly up to 46.1 µM
# Outline: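 Overnight (16 hr) co-exposure of 2,000 cells/well to 5-fluorouridine and compound at 37 °C preceded detection. Luciferase was quantified via ONE-Glo luminescence; loss of signal denotes inhibition.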
# Potency is the fitted concentration of half-maximal effect.
row,SMILES,Potency
1,CC(=O)c1cccc(NC(=O)CN(C)S(=O)(=O)c2ccccc2)c1,"inconclusive: 32.6 µM [activator, partial curve, poor fit]"
2,CCCc1nc2c(=O)n(C)c(=O)[nH]c2n1CCC,inactive
3,CN1/C(=C\C(=S)Nc2ccccc2)C(C)(C)c2ccccc21,"inconclusive: 20.6 µM [inhibitor, single point]"
4,CCOc1cc(/C=N/O)cc(Br)c1OCC,"inconclusive: 25.9 µM [inhibitor, partial curve, poor fit]"
5,Nc1cccc2c1C(=O)N(C(=O)/C=C/c1ccc(F)cc1)C2=O,"inconclusive: 23.1 µM [activator, single point]"
6,CN1CCC(=NNC(=O)C(=O)NC2CCCCC2)CC1,"inconclusive: 18.4 µM [activator, partial curve, poor fit]"
7,O=C(COC(=O)c1cccc(Cl)c1)NC(=O)NCc1ccccc1,inactive
8,CCCNS(=O)(=O)c1cccc(C(=O)NNC(=O)c2cc(C)oc2C)c1,"inconclusive: 20.6 µM [inhibitor, partial curve]"
9,Cc1cc(C)c(S(=O)(=O)N(C)CC(N)=O)c(C)c1,"inconclusive: 16.4 µM [inhibitor, partial curve, poor fit]"
10,CCOC(=O)CSc1nc2ccc(N3CCOCC3)cc2c(=O)n1Cc1ccccc1,"inconclusive: 29.1 µM [inhibitor, single point]"
11,Cc1ccc(NS(=O)(=O)c2cc(C(=O)NCc3ccncc3)ccc2C)cc1,inactive
12,Cc1onc(-c2ccccc2)c1C(=O)NC(=S)Nc1sc2c(c1C#N)CCC(C)C2 (stereo not given),"inconclusive: 9.2 µM [activator, partial curve]"
13,COc1ccccc1NC(=O)N1CCN(C(=O)c2ccco2)CC1,inactive
14,COc1ccc(CNS(=O)(=O)c2ccc(Br)s2)cc1,inactive
15,O=C(CN1c2ccccc2Sc2ccccc21)NNC(=S)Nc1ccc(Cl)cc1,"inconclusive: 14.6 µM [inhibitor, partial curve]"
16,CC1(c2ccc3c(c2)OCCCO3)NC(=O)N(CC(=O)Nc2cccc(C#N)c2)C1=O (stereo not given),"inconclusive: 14.6 µM [inhibitor, single point]"
17,N#C/C(=C\c1ccc(OC(=O)c2cccs2)cc1)c1nc2ccccc2[nH]1,"inconclusive: 5.17 µM [activator, full curve]"
18,CCOC(=O)c1ccc(N2C(=O)CC(NNC(=O)c3ccc(Br)s3)C2=O)cc1 (stereo not given),"inconclusive: 25.9 µM [activator, single point]"
19,CC(C)(C)N1CC(c2nc3ccccc3n2Cc2ccc(Cl)cc2)CC1=O (stereo not given),inactive
20,Cc1ccc(S(=O)(=O)NC(C(=O)O)c2ccccc2)cc1 (stereo not given),inactive
21,COc1ccc(C(=O)N2CCN(c3ccc(N4CCOCC4)nn3)CC2)cc1OC,inactive
22,CCOC(=O)C(=Cc1cn(C)c2ccc(S(=O)(=O)N(C)C)cc12)C(=O)OCC,"inconclusive: 18.3 µM [inhibitor, partial curve, poor fit]"
23,CCSc1nc2ccccc2[nH]1,inactive
24,COc1ccc(COC(=O)c2ccc(Cl)c(S(=O)(=O)N3CC(C)OC(C)C3)c2)cc1 (stereo not given),"inconclusive: 25.9 µM [inhibitor, single point]"

# Part of the list above, as tab-separated lines:
row	SMILES	Potency
13	COc1ccccc1NC(=O)N1CCN(C(=O)c2ccco2)CC1	inactive
16	CC1(c2ccc3c(c2)OCCCO3)NC(=O)N(CC(=O)Nc2cccc(C#N)c2)C1=O (stereo not given)	inconclusive: 14.6 µM [inhibitor, single point]

# (listing goes on)

row,SMILES,Potency
1,O=C1NC(=Nc2ccccc2)c2c1cccc2[N+](=O)[O-],"inconclusive: 9.2 µM [activator, partial curve]"
2,COc1ccc(CCC(=O)N2CCN(c3cccc(C)c3C)CC2)cc1,inactive
3,O=C(CN1CCN(c2cccc(Cl)c2)CC1)Nc1ccc(S(=O)(=O)N2CCOCC2)cc1,active: 18.3 µM
4,COc1cccc(-c2nn(-c3ccc(C)cc3)cc2C(=O)NCC2CCCO2)c1 (stereo not given),inactive
5,Cc1cccc(NC(=O)c2cc(-c3c(C)cc(C)cc3O)n[nH]2)c1,"inconclusive: 20.6 µM [activator, single point]"
6,COc1ccccc1NC(=O)Cn1c(=O)n2nc(C)nc2c2ccccc21,"inconclusive: 10.3 µM [activator, partial curve, poor fit]"
7,C=CCSC(=C(C#N)C#N)c1cc2c([nH]1)CCCC2,"inconclusive: 16.4 µM [inhibitor, partial curve]"
8,COc1cccc(NC(=O)Nc2cccc(C(=O)O)c2)c1,"inconclusive: 11.6 µM [inhibitor, partial curve]"
9,Fc1ccc(-c2ccnc(=S)[nH]2)cc1,"inconclusive: 10.3 µM [activator, partial curve, poor fit]"
10,COc1ccc(/C=C/C(=O)Nc2ccccc2)cc1OC,"inconclusive: 2.31 µM [activator, partial curve]"
11,COc1cccc(C(=O)CSc2nnc(COc3cccc4cccnc34)o2)c1,"inconclusive: 20.6 µM [inhibitor, partial curve]"
12,O=c1[nH]nc(Sc2ncnc3sccc23)n1CCc1ccccc1,"inconclusive: 23.1 µM [inhibitor, partial curve]"
13,COCCNC(=O)CSc1c2c(nc3ccc(Cl)cc13)CCCC2,"inconclusive: 9.2 µM [activator, partial curve, poor fit]"
14,CCCc1nc(SCC(=O)c2ccc(OC)cc2)c2ccccc2n1,"inconclusive: 29.1 µM [inhibitor, single point]"
15,CC(C)CCNC(=O)C1C2C=CC3(CN(Cc4ccccc4Cl)C(=O)C13)O2 (stereo not given),"inconclusive: 14.6 µM [activator, single point]"
16,N#CCC(=O)Nc1ccc(C(=O)OCC(=O)NC2CCCCCC2)cc1,inactive
17,Fc1ccc(-c2csc(Nc3ccccn3)n2)c(F)c1,"inconclusive: 1.3 µM [activator, partial curve]"
18,COc1ccc(N(C(C)C(=O)N/N=C/c2ccc(OCC(C)C)cc2)S(C)(=O)=O)cc1 (stereo not given),"inconclusive: 14.6 µM [inhibitor, partial curve]"
19,Cc1cccc(S(=O)(=O)c2c(N)n(/N=C/c3ccco3)c3nc4ccccc4nc23)c1,inactive
20,COc1ccc(-c2nnc(SCC(=O)c3ccc[nH]3)n2-c2ccccc2)cc1,"inconclusive: 20.6 µM [activator, partial curve]"
21,CCCCCCc1cc2cc(S(=O)(=O)c3ccc(F)c(Cl)c3)c(=O)oc2cc1O,"inconclusive: 3.66 µM [inhibitor, single point]"
22,Cc1cccc(NC(=O)c2cccc(OC(=S)N3CCOCC3)c2)c1C,"inconclusive: 9.2 µM [activator, partial curve, poor fit]"
23,NC(=O)C1CCCN(C(=O)c2ccc(S(=O)(=O)N3CCCCCC3)cc2)C1 (stereo not given),"inconclusive: 35.5 µM [activator, partial curve, poor fit]"
24,CN(Cc1ccccc1)C(=O)CCC1CCN(S(C)(=O)=O)CC1,inactive

row,SMILES,Potency
1,COc1cc2cc(CN(CCc3ccccc3C)C(=S)NCCCN3CCOCC3)c(=O)[nH]c2cc1OC,"inconclusive: 29.1 µM [inhibitor, single point]"
2,CC1(C(=O)NCC2CC2)C=CC2(CCCCC2)N1C(=O)c1ccccc1 (stereo not given),"inconclusive: 9.2 µM [activator, partial curve, poor fit]"
3,C(=C\c1nc(N2CCCC2)c2ccccc2n1)/c1ccccc1,inactive
4,CC(C)CCNC(=O)COC(=O)/C=C/c1ccc2ccccc2n1,inactive
5,Cc1c(NC(=O)c2cc3c(s2)-c2ccccc2OC3)cccc1[N+](=O)[O-],active: 23.1 µM
6,Cc1cccc(-n2nnc(C(=O)Nc3ccc(F)cc3)c2N)c1,"inconclusive: 2.06 µM [activator, full curve]"
7,Cc1ccc(Nc2nc3ccccc3[nH]2)nc1,"inconclusive: 2.91 µM [activator, partial curve]"
8,O=C(NC1CCCCCCC1)c1ccco1,"inconclusive: 18.4 µM [activator, partial curve]"
9,COC(=O)[C@]1(Cc2ccccc2)N[C@H](CN(C)C(=O)Nc2ccc(C(F)(F)F)cc2)[C@@H]2C(=O)N(Cc3ccccc3)C(=O)[C@@H]21,"inconclusive: 23.1 µM [inhibitor, single point]"
10,O=C(CN1CCN(Cc2ccccc2)CC1)N/N=C\C=C/c1ccco1,"inconclusive: 23.1 µM [activator, single point]"
11,Cc1cccc(C)c1NC(=O)c1c[nH]c2ccccc12,"inconclusive: 10.3 µM [activator, partial curve]"
12,Cc1ccc(N(CC(=O)Nc2cc(C)cc(C)c2)S(=O)(=O)c2c(C)noc2C)cc1,inactive
13,CCN(CC)S(=O)(=O)c1ccc(Cl)c(C(=O)NCc2ccco2)c1,inactive
14,C=CCn1c(=O)n2ncnc2c2c3c(sc21)CCCC3,inactive
15,O=C(N/N=C/c1cc(Cl)cc([N+](=O)[O-])c1O)c1ccccc1NS(=O)(=O)c1cccs1,"inconclusive: 20.6 µM [inhibitor, single point]"
16,O=C(COC(=O)/C=C/c1ccco1)NCc1ccco1,inactive
17,CCOC(=O)c1c(NC(=O)CC(C)C)sc(C(C)=O)c1C,inactive
18,COc1ccc(N2Nc3n[nH]c(N)c3N2)cc1,"inconclusive: 18.4 µM [activator, single point]"
19,Cc1cc(C)n2nc(C(=O)Nc3ccc4c(c3)OCCO4)nc2n1,"inconclusive: 7.3 µM [activator, partial curve]"
20,CCOc1ccc(NC(=O)CNC(=O)c2cccs2)cc1,"inconclusive: 16.4 µM [activator, single point]"
21,O=C(NCc1cccnc1)C(=O)NCC1OCCN1S(=O)(=O)c1ccc(F)cc1 (stereo not given),inactive
22,CCOC(=O)N1CCN(C(=O)CNC(=O)c2nn(-c3ccc(OC)c(Cl)c3)c(=O)c3ccccc23)CC1,"inconclusive: 10.3 µM [inhibitor, partial curve]"

# An excerpt of these results, as tab-separated lines.
row	SMILES	Potency
13	COc1ccccc1NC(=O)N1CCN(C(=O)c2ccco2)CC1	inactive
5	Cc1c(NC(=O)c2cc3c(s2)-c2ccccc2OC3)cccc1[N+](=O)[O-]	active: 23.1 µM
